From patent publication US7534814B2, “Mutilin derivatives and their use as antibacterials” (Nabriva Therapeutics AG, priority 1999, dated 2009)
Some entries share one result that the patent states for a list of compounds. At least one structure is not confirmed: it was looked up by name or label, or the drawing left a doubt.

Tests used:
[1] = tested on: Staphylococcus aureus, e.g. strains ATCC 10390, ATCC 29213, ATCC 29506, ATCC 49951 or ATCC 9144; assay: MIC 90% in Agar Dilution Test or Microdilution Test (NCCLS); assay type: cell-based; settings: Staphylococcus aureus strains ATCC 10390, ATCC 29213, ATCC 29506, ATCC 49951 or ATCC 9144
[2] = tested on: penicillin-resistant Streptococcus pneumoniae; assay: MIC in Agar Dilution Test or Micro Dilution Test (NCCLS M7-A4); assay type: cell-based
From the text: For example, the active compounds of the present invention show antimicrobial, e.g. antibacterial activity against gram negative bacterias, such as Escherichia coli; and against gram positive bacteria, such as Staphylococcus aureus, Streptococcus pyogenes, Streptococcus pneumonlae, Mycoplasms, Chlamydia and obligatory anaerobes, e.g. Bacteroides fragilis; in vitro in the Agar Dilution Test or Microdilution Test according to National Commitee for Clinical Laboratory Standards (NCCLS) 1997, Document M7-A4 Vol.17, No. 2: “Methods for dilution Antimicrobial Susceptibility Tests for Bacteria that Grow Aerobically—Fourth Edition, Approved Standard”; and e.g. in vivo in systemic infections in mice.
The active compounds of the invention show an surprising overall activity spectrum. […]

SMILES: C=C[C@]1(C)C[C@@H](OC(=O)CSc2cccc(NC(=O)[C@H]3CCCCN3)c2)[C@]2(C)[C@H](C)CC[C@]3(CCC(=O)[C@H]32)[C@@H](C)[C@@H]1O [Example 1]
- MIC 90% [1]: ≤ 0.0125 µg/mL
- MIC [2]: ≤ 0.0125 µg/mL

SMILES: C=C[C@]1(C)C[C@@H](OC(=O)CSc2cccc(N)c2)[C@]2(C)[C@H](C)CC[C@]3(CCC(=O)[C@H]32)[C@@H](C)[C@@H]1O [Example 52, 14-O-[(3-Amino-phenylsulfanyl)acetyl]mutilin]
- MIC 90% [1]: ≤ 0.0125 µg/mL
- MIC [2]: ≤ 0.0125 µg/mL
